Among the data in paper PMC8560770 are binding values, retold here.

Chains of the proteins cited; added tags and fusions are not shown.
UniProt P57678: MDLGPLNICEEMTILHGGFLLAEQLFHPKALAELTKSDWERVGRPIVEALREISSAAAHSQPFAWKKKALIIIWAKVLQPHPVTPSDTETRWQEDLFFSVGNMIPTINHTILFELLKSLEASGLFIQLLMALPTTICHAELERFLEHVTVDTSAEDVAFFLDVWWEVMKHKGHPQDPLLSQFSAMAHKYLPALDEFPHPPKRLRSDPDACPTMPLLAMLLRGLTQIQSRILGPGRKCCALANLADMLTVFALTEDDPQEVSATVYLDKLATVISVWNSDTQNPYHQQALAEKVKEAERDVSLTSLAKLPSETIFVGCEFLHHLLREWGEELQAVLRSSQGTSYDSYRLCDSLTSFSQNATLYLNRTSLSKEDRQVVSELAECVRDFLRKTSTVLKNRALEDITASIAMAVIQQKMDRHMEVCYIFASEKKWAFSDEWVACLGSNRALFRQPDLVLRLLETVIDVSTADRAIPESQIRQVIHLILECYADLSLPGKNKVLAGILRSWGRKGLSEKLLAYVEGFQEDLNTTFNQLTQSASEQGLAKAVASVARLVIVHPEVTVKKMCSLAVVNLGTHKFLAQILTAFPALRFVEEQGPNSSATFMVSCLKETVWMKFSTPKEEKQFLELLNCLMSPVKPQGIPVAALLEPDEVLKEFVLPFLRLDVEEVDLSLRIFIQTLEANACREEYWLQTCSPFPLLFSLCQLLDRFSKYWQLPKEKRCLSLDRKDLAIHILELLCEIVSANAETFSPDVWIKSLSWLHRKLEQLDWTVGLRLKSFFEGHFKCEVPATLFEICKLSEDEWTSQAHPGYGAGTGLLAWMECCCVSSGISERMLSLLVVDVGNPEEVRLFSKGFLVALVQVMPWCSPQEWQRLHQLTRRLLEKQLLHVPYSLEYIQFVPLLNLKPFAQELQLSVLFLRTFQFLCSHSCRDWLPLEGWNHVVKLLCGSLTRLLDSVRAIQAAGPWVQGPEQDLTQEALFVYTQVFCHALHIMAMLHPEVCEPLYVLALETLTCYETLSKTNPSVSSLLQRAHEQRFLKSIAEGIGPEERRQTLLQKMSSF
UniProt Q16637: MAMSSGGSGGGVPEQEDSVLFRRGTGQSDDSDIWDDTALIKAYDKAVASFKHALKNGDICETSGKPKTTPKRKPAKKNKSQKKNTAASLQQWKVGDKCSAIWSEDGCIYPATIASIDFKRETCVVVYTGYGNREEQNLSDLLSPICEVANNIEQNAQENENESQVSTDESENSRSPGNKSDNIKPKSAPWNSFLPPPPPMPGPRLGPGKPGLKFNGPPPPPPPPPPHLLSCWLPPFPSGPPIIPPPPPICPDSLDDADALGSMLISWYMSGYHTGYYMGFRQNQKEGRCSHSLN
UniProt Q96RR4: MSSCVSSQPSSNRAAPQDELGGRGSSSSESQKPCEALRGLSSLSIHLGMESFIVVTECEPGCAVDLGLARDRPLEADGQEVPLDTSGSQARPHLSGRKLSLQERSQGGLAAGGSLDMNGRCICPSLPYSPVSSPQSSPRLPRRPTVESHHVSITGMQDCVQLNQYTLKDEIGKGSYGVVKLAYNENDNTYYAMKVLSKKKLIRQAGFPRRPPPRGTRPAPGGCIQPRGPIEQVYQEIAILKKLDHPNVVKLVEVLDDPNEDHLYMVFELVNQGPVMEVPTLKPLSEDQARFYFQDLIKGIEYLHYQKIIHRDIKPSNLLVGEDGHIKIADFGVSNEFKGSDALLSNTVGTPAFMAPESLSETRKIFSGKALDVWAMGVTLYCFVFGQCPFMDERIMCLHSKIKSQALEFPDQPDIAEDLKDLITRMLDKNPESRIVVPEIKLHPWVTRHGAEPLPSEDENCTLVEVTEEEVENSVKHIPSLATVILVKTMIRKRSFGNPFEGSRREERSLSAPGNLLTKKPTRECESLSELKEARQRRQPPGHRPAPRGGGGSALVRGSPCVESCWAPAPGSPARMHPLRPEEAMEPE
UniProt P61923: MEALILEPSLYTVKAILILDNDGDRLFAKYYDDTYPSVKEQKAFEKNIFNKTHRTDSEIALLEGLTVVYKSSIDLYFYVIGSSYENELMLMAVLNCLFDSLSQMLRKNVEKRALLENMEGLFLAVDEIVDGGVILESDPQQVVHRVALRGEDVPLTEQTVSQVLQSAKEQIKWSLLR
UniProt Q9UHI6: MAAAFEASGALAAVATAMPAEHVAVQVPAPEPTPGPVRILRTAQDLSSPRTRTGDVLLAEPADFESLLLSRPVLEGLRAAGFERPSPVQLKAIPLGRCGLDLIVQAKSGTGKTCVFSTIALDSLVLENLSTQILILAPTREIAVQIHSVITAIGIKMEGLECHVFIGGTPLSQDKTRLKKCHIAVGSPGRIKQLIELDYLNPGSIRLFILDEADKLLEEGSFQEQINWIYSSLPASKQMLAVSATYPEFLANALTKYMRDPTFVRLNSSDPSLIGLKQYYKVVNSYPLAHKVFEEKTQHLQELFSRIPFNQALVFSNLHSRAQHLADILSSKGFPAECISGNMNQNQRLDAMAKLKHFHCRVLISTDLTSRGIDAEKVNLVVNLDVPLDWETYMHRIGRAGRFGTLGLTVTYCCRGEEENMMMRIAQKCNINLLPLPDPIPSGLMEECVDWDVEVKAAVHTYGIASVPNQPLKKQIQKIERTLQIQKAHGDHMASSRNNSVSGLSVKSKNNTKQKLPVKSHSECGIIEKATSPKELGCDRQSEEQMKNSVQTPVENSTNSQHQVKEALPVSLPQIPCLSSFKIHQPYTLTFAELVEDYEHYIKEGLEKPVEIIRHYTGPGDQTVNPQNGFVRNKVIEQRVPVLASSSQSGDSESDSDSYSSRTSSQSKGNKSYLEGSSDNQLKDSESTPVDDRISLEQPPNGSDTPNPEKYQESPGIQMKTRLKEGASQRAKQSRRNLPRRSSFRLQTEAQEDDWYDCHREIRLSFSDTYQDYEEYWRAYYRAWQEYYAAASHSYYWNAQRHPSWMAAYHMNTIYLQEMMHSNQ

These are yes or no findings as the source states them, for the method shown. Binding seen in cells or lysates may run through a third protein. Some results given as binding are weak or reduced against the parent protein; the word gives no strength.

The chains are these.
T1: Gemin4 CaMKK2 Binding Motif peptide, biotinylated
T1 sequence (peptide, biotin): SLTSFSQNA

B1: α-COP, endogenous in LNCaP cells (protein, UniProt P53621 1-1224)
chain: MLTKFETKSARVKGLSFHPKRPWILTSLHNGVIQLWDYRMCTLIDKFDEHDGPVRGIDFHKQQPLFVSGGDDYKIKVWNYKLRRCLFTLLGHLDYIRTTFFHHEYPWILSASDDQTIRVWNWQSRTCVCVLTGHNHYVMCAQFHPTEDLVVSASLDQTVRVWDISGLRKKNLSPGAVESDVRGITGVDLFGTTDAVVKHVLEGHDRGVNWAAFHPTMPLIVSGADDRQVKIWRMNESKAWEVDTCRGHYNNVSCAVFHPRQELILSNSEDKSIRVWDMSKRTGVQTFRRDHDRFWVLAAHPNLNLFAAGHDGGMIVFKLERERPAYAVHGNMLHYVKDRFLRQLDFNSSKDVAVMQLRSGSKFPVFNMSYNPAENAVLLCTRASNLENSTYDLYTIPKDADSQNPDAPEGKRSSGLTAVWVARNRFAVLDRMHSLLIKNLKNEITKKVQVPNCDEIFYAGTGNLLLRDADSITLFDVQQKRTLASVKISKVKYVIWSADMSHVALLAKHAIVICNRKLDALCNIHENIRVKSGAWDESGVFIYTTSNHIKYAVTTGDHGIIRTLDLPIYVTRVKGNNVYCLDRECRPRVLTIDPTEFKFKLALINRKYDEVLHMVRNAKLVGQSIIAYLQKKGYPEVALHFVKDEKTRFSLALECGNIEIALEAAKALDDKNCWEKLGEVALLQGNHQIVEMCYQRTKNFDKLSFLYLITGNLEKLRKMMKIAEIRKDMSGHYQNALYLGDVSERVRILKNCGQKSLAYLTAATHGLDEEAESLKETFDPEKETIPDIDPNAKLLQPPAPIMPLDTNWPLLTVSKGFFEGTIASKGKGGALAADIDIDTVGTEGWGEDAELQLDEDGFVEATEGLGDDALGKGQEEGGGWDVEEDLELPPELDISPGAAGGAEDGFFVPPTKGTSPTQIWCNNSQLPVDHILAGSFETAMRLLHDQVGVIQFGPYKQLFLQTYARGRTTYQALPCLPSMYGYPNRNWKDAGLKNGVPAVGLKLNDLIQRLQLCYQLTTVGKFEEAVEKFRSILLSVPLLVVDNKQEIAEAQQLITICREYIVGLSVETERKKLPKETLEQQKRICEMAAYFTHSNLQPVHMILVLRTALNLFFKLKNFKTAATFARRLLELGPKPEVAQQTRKILSACEKNPTDAYQLNYDMHNPFDICAASYRPIYRGKPVEKCPLSGACYSPEFKGQICRVTTVTEIGKDVIGLRISPLQFR
B2: δ-COP (ARCN1), endogenous in LNCaP cells (protein, UniProt P48444 1-511)
chain: MVLLAAAVCTKAGKAIVSRQFVEMTRTRIEGLLAAFPKLMNTGKQHTFVETESVRYVYQPMEKLYMVLITTKNSNILEDLETLRLFSRVIPEYCRALEENEISEHCFDLIFAFDEIVALGYRENVNLAQIRTFTEMDSHEEKVFRAVRETQEREAKAEMRRKAKELQQARRDAERQGKKAPGFGGFGSSAVSGGSTAAMITETIIETDKPKVAPAPARPSGPSKALKLGAKGKEVDNFVDKLKSEGETIMSSSMGKRTSEATKMHAPPINMESVHMKIEEKITLTCGRDGGLQNMELHGMIMLRISDDKYGRIRLHVENEDKKGVQLQTHPNVDKKLFTAESLIGLKNPEKSFPVNSDVGVLKWRLQTTEESFIPLTINCWPSESGNGCDVNIEYELQEDNLELNDVVITIPLPSGVGAPVIGEIDGEYRHDSRRNTLEWCLPVIDAKNKSGSLEFSIAGQPNDFFPVQVSFVSKKNYCNIQVTKVTQVDGNSPVRFSTETTFLVDKYEIL

The target in one assay is T1, Gemin4 CaMKK2 Binding Motif peptide, biotinylated. Kind of assay: pull-down; biotinylated peptide as bait (Pierce Biotinylated Protein Interaction Kit, avidin/streptavidin) with LNCaP cell lysate, steady state or 24 h 10 nM R1881 or ethanol; western blot; only the target purified.
For “Gemin4, endogenous in LNCaP cells (from UniProt P57678 1-1058)”, the binding entry is reported as “binds”. For “Gemin1/SMN1, endogenous in LNCaP cells (from UniProt Q16637 1-294)”, the binding entry is reported as “no binding”. As to “Calcium/calmodulin-dependent protein kinase kinase 2 (CaMKK2), endogenous in LNCaP cells (from UniProt Q96RR4 1-588)”, the binding entry is “binds”. Same read-out and setting: the value for “ζ-COP, endogenous in LNCaP cells (from UniProt P61923 1-177)” was “binds”. On the same count and under the same terms, to “Gemin3/DDX20, endogenous in LNCaP cells (from UniProt Q9UHI6 1-824)” belongs “binds”.

The next assay has the same target. The assay is described as above. This is another data set of the same source.
For the molecule B1, the binding result was “binds”. The same measure, in the same setting: to B2 belongs “binds”.
